Experimental data: PubChem BioAssay AID1159578 (Peter MacCallum Cancer Centre, 2015)

- Screen: 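siRNA pools altering how lymphatic endothelial cells close a scratch wound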 (primary screen)
- Cells: human lymphatic endothelial cells
- Reagents: siRNA pool against human genes, 40 nM
- Timing: 48 h after transfection
- Detection: 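Cells stained with dye and imaged after a scratch; covered wound area and nuclei counted, duplicates averaged, migration set against mock wells and turned into a robust z-score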
- Scale: migration robust z-score: higher = faster migration into the scratch; migration relative to mock: higher = more scratch area covered than mock; nuclei per well: higher = more cells in the well
- Hit rule: 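Migration changed when robust z exceeds 2 or falls below -2 and mean nuclei number is at least 3300; otherwise not called changed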
- Calls: active = migration changed; inactive = no migration change, or too few cells
In all, the deposit lists about 18,000 reagents; shown is a random part of them. About 1,030 of all reagents (5.7%) were called active. 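Inactive calls also include pools with fewer than 3300 nuclei, whose migration was not assessed.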 Raw values are not corrected between plates.

| gene | migration robust z-score | migration class with cell-count check | migration relative to mock | nuclei per well, duplicate mean | activity call |
| --- | --- | --- | --- | --- | --- |
| CSNK2B | -1.77 | migration z between -2 and 2; enough cells | 0.46 | 3900 | inactive |
| METTL26 | -1.44 | migration z between -2 and 2; enough cells | 0.52 | 5164 | inactive |
| GSTM3 | 0.76 | migration z between -2 and 2; enough cells | 0.95 | 5863 | inactive |
| PTPRF | -0.75 | migration z between -2 and 2; enough cells | 0.66 | 5978 | inactive |
| SLC1A4 | -0.18 | migration z between -2 and 2; enough cells | 0.77 | 6584 | inactive |
| CBX6 | 0.29 | migration z between -2 and 2; enough cells | 0.96 | 7113 | inactive |
| ZNF26 | -0.48 | migration z between -2 and 2; enough cells | 0.76 | 6150 | inactive |
| GAL3ST2 | -1.4 | migration z between -2 and 2; enough cells | 0.54 | 3613 | inactive |
| TRMT13 | -0.11 | migration z between -2 and 2; enough cells | 0.86 | 4222 | inactive |
| TAS2R46 | 1.03 | migration z between -2 and 2; enough cells | 1.16 | 6524 | inactive |
| NAA50 | 0.17 | migration z between -2 and 2; enough cells | 0.93 | 5993 | inactive |
| TRIR | -1.39 | migration z between -2 and 2; enough cells | 0.53 | 5014 | inactive |
| LEFTY2 | 0.02 | migration z between -2 and 2; enough cells | 0.81 | 6148 | inactive |
| SMCO4 | 0.42 | migration z between -2 and 2; enough cells | 1 | 6542 | inactive |
| KRTAP1-3 | 0.16 | migration z between -2 and 2; enough cells | 0.92 | 5704 | inactive |
| ASB14 | -3.73 | migration z below -2; enough cells | 0.08 | 5417 | active |
| MAST4 | 0.39 | migration z between -2 and 2; enough cells | 0.88 | 4688 | inactive |
| CAV1 | 1.06 | migration z between -2 and 2; enough cells | 1.01 | 4921 | inactive |
| EEF2 | 0.76 | migration z between -2 and 2; enough cells | 0.95 | 5922 | inactive |
| TSPOAP1 | -0.32 | migration z between -2 and 2; enough cells | 0.8 | 6379 | inactive |
| CADM1 | -2.55 | migration z below -2; enough cells | 0.22 | 5603 | active |
| CYP27C1 | 0.8 | migration z between -2 and 2; enough cells | 0.96 | 3766 | inactive |
| PYROXD2 | 1.23 | migration z between -2 and 2; enough cells | 1.21 | 6406 | inactive |
| WARS1 | -0.5 | migration z between -2 and 2; enough cells | 0.71 | 6356 | inactive |
| STAT6 | 0.39 | migration z between -2 and 2; enough cells | 0.88 | 5780 | inactive |
| NKX6-1 | 0.83 | migration z between -2 and 2; enough cells | 0.97 | 5618 | inactive |
| ZNF135 | 1.58 | migration z between -2 and 2; enough cells | 1.29 | 7040 | inactive |
| GLTPD2 | -3.12 | migration z below -2; enough cells | 0.08 | 5774 | active |
| PPP1R3B | 0.06 | migration z between -2 and 2; enough cells | 0.9 | 4980 | inactive |
| LOC642219 (retired record) | 0.05 | migration z between -2 and 2; enough cells | 0.82 | 5940 | inactive |
| DCAF4 | -1.73 | migration z between -2 and 2; enough cells | 0.44 | 4868 | inactive |
| PRSS58 | -0.5 | migration z between -2 and 2; enough cells | 0.71 | 5986 | inactive |
| MBTPS1 | 0.21 | migration z between -2 and 2; enough cells | 0.84 | 5168 | inactive |
| RTL8C | -2.56 | migration z below -2; enough cells | 0.22 | 6102 | active |
| MON2 | -0.68 | migration z between -2 and 2; enough cells | 0.71 | 6320 | inactive |
| DNAJC16 | 1.17 | migration z between -2 and 2; enough cells | 1.19 | 5919 | inactive |
| TCEAL6 | -3.83 | migration z below -2; enough cells | -0.11 | 3792 | active |
| SLC7A9 | -0.18 | migration z between -2 and 2; enough cells | 0.77 | 5640 | inactive |
| KCTD12 | -0.03 | migration z between -2 and 2; enough cells | 0.8 | 5132 | inactive |
| FBXO11 | -0.39 | migration z between -2 and 2; enough cells | 0.73 | 5782 | inactive |
| SHKBP1 | 1.51 | migration z between -2 and 2; enough cells | 1.28 | 5811 | inactive |
| MUTYH | -0.84 | migration z between -2 and 2; enough cells | 0.64 | 6838 | inactive |
| RAB24 | 0.52 | migration z between -2 and 2; enough cells | 1.02 | 5876 | inactive |
| PEX26 | 0.84 | migration z between -2 and 2; enough cells | 1.1 | 5746 | inactive |
| BPTF | -1.29 | migration z between -2 and 2; enough cells | 0.55 | 5936 | inactive |
| MDGA2 | 0.56 | migration z between -2 and 2; enough cells | 1.03 | 4943 | inactive |

5 of these entries, set out differently:
{"gene":"ASB14","migration robust z-score":-3.73,"migration class with cell-count check":"migration z below -2; enough cells","migration relative to mock":0.08,"nuclei per well, duplicate mean":5417,"activity call":"active"}
{"gene":"MAST4","migration robust z-score":0.39,"migration class with cell-count check":"migration z between -2 and 2; enough cells","migration relative to mock":0.88,"nuclei per well, duplicate mean":4688,"activity call":"inactive"}
{"gene":"CAV1","migration robust z-score":1.06,"migration class with cell-count check":"migration z between -2 and 2; enough cells","migration relative to mock":1.01,"nuclei per well, duplicate mean":4921,"activity call":"inactive"}
{"gene":"EEF2","migration robust z-score":0.76,"migration class with cell-count check":"migration z between -2 and 2; enough cells","migration relative to mock":0.95,"nuclei per well, duplicate mean":5922,"activity call":"inactive"}
{"gene":"TSPOAP1","migration robust z-score":-0.32,"migration class with cell-count check":"migration z between -2 and 2; enough cells","migration relative to mock":0.8,"nuclei per well, duplicate mean":6379,"activity call":"inactive"}

The results go on.
| gene | migration robust z-score | migration class with cell-count check | migration relative to mock | nuclei per well, duplicate mean | activity call |
| --- | --- | --- | --- | --- | --- |
| DNAJC9 | -0.43 | migration z between -2 and 2; enough cells | 0.78 | 5086 | inactive |
| LTA | -1.13 | migration z between -2 and 2; enough cells | 0.59 | 6445 | inactive |
| SLBP | -1.08 | migration z between -2 and 2; enough cells | 0.6 | 4651 | inactive |
| DOLK | -1.67 | migration z between -2 and 2; enough cells | 0.46 | 6893 | inactive |
| VXN | 1.01 | migration z between -2 and 2; enough cells | 1.15 | 6069 | inactive |
| ACP7 | -0.39 | migration z between -2 and 2; enough cells | 0.73 | 5611 | inactive |
| TIPE2 | -2.14 | migration z below -2; enough cells | 0.34 | 4994 | active |
| TCOF1 | -0.68 | migration z between -2 and 2; enough cells | 0.68 | 6223 | inactive |
| TMTC2 | -0.68 | migration z between -2 and 2; enough cells | 0.71 | 6138 | inactive |
| ZFP36L1 | -0.68 | migration z between -2 and 2; enough cells | 0.68 | 5295 | inactive |
| GPC2 | -0.41 | migration z between -2 and 2; enough cells | 0.78 | 6818 | inactive |
| CDK5R1 | -4.29 | under 3300 nuclei; migration not judged | -0.02 | 2354 | inactive |
| KCNJ10 | 0.39 | migration z between -2 and 2; enough cells | 0.88 | 4478 | inactive |
| PIGU | 0.6 | migration z between -2 and 2; enough cells | 0.92 | 6092 | inactive |
| ARTN | -0.9 | migration z between -2 and 2; enough cells | 0.65 | 5912 | inactive |
| SNX24 | 1.56 | migration z between -2 and 2; enough cells | 1.28 | 6656 | inactive |
| VCX2 | 0.91 | migration z between -2 and 2; enough cells | 1.12 | 6286 | inactive |
| DFFA | -1.09 | migration z between -2 and 2; enough cells | 0.6 | 6410 | inactive |
| UFM1 | 0.9 | migration z between -2 and 2; enough cells | 1.12 | 5746 | inactive |
| FGF5 | 0.16 | migration z between -2 and 2; enough cells | 0.84 | 5337 | inactive |
| PCNT | -0.87 | migration z between -2 and 2; enough cells | 0.66 | 3972 | inactive |
| NCF2 | 0.99 | migration z between -2 and 2; enough cells | 1 | 5518 | inactive |
| SPINK9 | 0.81 | migration z between -2 and 2; enough cells | 1.1 | 6092 | inactive |
| OR3A2 | 0.52 | migration z between -2 and 2; enough cells | 1.01 | 6003 | inactive |
| SGSM3 | -0.22 | migration z between -2 and 2; enough cells | 0.83 | 6548 | inactive |
| SMIM19 | -1 | migration z between -2 and 2; enough cells | 0.62 | 6214 | inactive |
| ASCL4 | 0.54 | migration z between -2 and 2; enough cells | 1.02 | 4768 | inactive |
